{"source": "PubChem BioAssay AID1259254 (NCATS, 2017)", "purpose": "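Genome-wide screen for genes that prevent DNA re-replication in cancer cells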 (primary screen)", "cell system": "human HCT116 colorectal cancer cells", "knock-down reagent": "single siRNA against human genes", "duration": "3 days", "detection": "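Nuclei stained with Hoechst and imaged; cell-cycle phase assigned by DNA content; G2 share scaled per plate, non-targeting siRNA 0%, GMNN siRNA 100%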", "direction": "G2 robust z-score: higher = more G2 cells, more excess DNA replication", "call rule": "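An siRNA counts as active if its G2 robust z-score lies at least 5 MADs above the screen median; here such calls match roughly 38% of GMNN control or more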", "note": "In all, the deposit lists about 59,000 reagents; shown is a part drawn at random. About 1,550 of all reagents (2.6%) count as active. 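G2 share is only a proxy for re-replication; each gene was hit by three separate siRNAs, and active genes were retested.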 Reagents against one gene are numbered here. Further read-outs or replicates are left out here. Not stated in the record: the amount of reagent."}
{"gene": "ZBTB8A (zinc finger and BTB domain containing 8A)", "siRNA no.": 1, "G2 robust z-score": 3.06, "call": "inactive"}
{"gene": "ZBTB8A (zinc finger and BTB domain containing 8A)", "siRNA no.": 2, "G2 robust z-score": -0.477, "call": "inactive"}
{"gene": "ZBTB8A (zinc finger and BTB domain containing 8A)", "siRNA no.": 3, "G2 robust z-score": -0.546, "call": "inactive"}
{"gene": "SPDL1 (spindle apparatus coiled-coil protein 1)", "siRNA no.": 1, "G2 robust z-score": 4.08, "call": "inactive"}
{"gene": "SPDL1 (spindle apparatus coiled-coil protein 1)", "siRNA no.": 2, "G2 robust z-score": 0.596, "call": "inactive"}
{"gene": "SPDL1 (spindle apparatus coiled-coil protein 1)", "siRNA no.": 3, "G2 robust z-score": 0.861, "call": "inactive"}
{"gene": "CRTAP (cartilage associated protein)", "siRNA no.": 1, "G2 robust z-score": -0.662, "call": "inactive"}
{"gene": "CRTAP (cartilage associated protein)", "siRNA no.": 2, "G2 robust z-score": -0.854, "call": "inactive"}
{"gene": "CRTAP (cartilage associated protein)", "siRNA no.": 3, "G2 robust z-score": 0.179, "call": "inactive"}
{"gene": "VPS25 (vacuolar protein sorting 25 homolog)", "siRNA no.": 1, "G2 robust z-score": 2.1, "call": "inactive"}
{"gene": "VPS25 (vacuolar protein sorting 25 homolog)", "siRNA no.": 2, "G2 robust z-score": -0.498, "call": "inactive"}
{"gene": "VPS25 (vacuolar protein sorting 25 homolog)", "siRNA no.": 3, "G2 robust z-score": -0.72, "call": "inactive"}

Copied from the list.
For “call”, ZBTB8A (zinc finger and BTB domain containing 8A) #3 has inactive
For “G2 robust z-score”, SPDL1 (spindle apparatus coiled-coil protein 1) #1 has 4.08
